Data published in paper doi:10.1101/2022.02.10.480004.
These are yes or no findings as the source states them, for the method shown. Binding seen in cells or lysates may run through a third protein. Binding calls can cover weak binding; strength is not graded here. Sequences can lack the tags named with a protein.

Molecular target: T1, CFP-tagged wild-type inhibitor-2 (CFP-I-2) (UniProt P41236)
T1 sequence: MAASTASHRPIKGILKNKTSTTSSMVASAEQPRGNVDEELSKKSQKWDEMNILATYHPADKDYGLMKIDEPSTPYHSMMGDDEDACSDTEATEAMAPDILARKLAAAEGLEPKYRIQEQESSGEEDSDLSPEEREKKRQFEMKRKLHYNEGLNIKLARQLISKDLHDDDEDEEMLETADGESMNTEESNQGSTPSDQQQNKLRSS
Experiment: FRET or BRET

binding: binds
Substance: YFP-PP1γ (enzyme)
